Paper PMC12282055
Results are given in words; binding and its absence hold for the method and conditions named. Binding seen in cells or lysates may run through a third protein. Some binding calls cover weakened binding; strength is not graded here.

T1: IFIT3 (interferon-induced protein with tetratricopeptide repeats 3), wild type (human) (UniProt O14879)
T1 sequence: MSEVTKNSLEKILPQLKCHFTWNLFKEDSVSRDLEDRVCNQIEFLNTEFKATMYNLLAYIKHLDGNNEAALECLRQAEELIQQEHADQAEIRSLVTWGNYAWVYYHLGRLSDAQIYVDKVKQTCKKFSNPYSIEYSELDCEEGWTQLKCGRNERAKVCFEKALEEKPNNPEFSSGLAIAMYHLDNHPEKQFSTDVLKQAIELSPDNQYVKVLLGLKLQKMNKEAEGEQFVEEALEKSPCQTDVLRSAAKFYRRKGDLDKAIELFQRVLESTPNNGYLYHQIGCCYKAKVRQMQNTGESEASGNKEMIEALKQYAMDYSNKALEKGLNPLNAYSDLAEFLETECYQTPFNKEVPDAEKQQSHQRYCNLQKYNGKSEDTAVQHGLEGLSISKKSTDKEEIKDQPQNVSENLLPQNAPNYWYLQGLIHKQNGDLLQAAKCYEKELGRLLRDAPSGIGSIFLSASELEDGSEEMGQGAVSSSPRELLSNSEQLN

T2: IFIT3 K249E (RNA-binding mutant) (human) (UniProt O14879)
T2 sequence: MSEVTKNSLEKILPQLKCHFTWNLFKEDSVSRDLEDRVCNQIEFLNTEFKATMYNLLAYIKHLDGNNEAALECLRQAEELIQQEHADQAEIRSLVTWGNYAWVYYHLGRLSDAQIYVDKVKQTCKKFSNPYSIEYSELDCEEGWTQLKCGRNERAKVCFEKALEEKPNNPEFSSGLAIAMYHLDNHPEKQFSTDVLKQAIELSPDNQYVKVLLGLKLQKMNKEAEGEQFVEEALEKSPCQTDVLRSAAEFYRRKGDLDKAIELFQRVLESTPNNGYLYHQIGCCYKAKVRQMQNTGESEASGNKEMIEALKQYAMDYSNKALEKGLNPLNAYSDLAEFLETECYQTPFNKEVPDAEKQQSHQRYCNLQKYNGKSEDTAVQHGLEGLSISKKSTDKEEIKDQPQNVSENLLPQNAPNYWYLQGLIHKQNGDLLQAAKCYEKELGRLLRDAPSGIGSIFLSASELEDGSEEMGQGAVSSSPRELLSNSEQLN


Key:
[1] = target: T1, IFIT3 (interferon-induced protein with tetratricopeptide repeats 3), wild type (human); experiment: co-IP; GFP- and V5-tagged WT and mutant proteins co-expressed in 293T cells; lysed in co-IP buffer; GFP-tagged form immunoprecipitated overnight with GFP trap resin, four washes; co-precipitating V5-tagged proteins detected by western blot
[2] = target: T2, IFIT3 K249E (RNA-binding mutant) (human); experiment: as above

binding [1]	binding [2]	Binder
binds	binds	IFIT3 (interferon-induced protein with tetratricopeptide repeats 3), wild type (protein, UniProt O14879 1-490) MSEVTKNSLEKILPQLKCHFTWNLFKEDSVSRDLEDRVCNQIEFLNTEFKATMYNLLAYIKHLDGNNEAALECLRQAEELIQQEHADQAEIRSLVTWGNYAWVYYHLGRLSDAQIYVDKVKQTCKKFSNPYSIEYSELDCEEGWTQLKCGRNERAKVCFEKALEEKPNNPEFSSGLAIAMYHLDNHPEKQFSTDVLKQAIELSPDNQYVKVLLGLKLQKMNKEAEGEQFVEEALEKSPCQTDVLRSAAKFYRRKGDLDKAIELFQRVLESTPNNGYLYHQIGCCYKAKVRQMQNTGESEASGNKEMIEALKQYAMDYSNKALEKGLNPLNAYSDLAEFLETECYQTPFNKEVPDAEKQQSHQRYCNLQKYNGKSEDTAVQHGLEGLSISKKSTDKEEIKDQPQNVSENLLPQNAPNYWYLQGLIHKQNGDLLQAAKCYEKELGRLLRDAPSGIGSIFLSASELEDGSEEMGQGAVSSSPRELLSNSEQLN
binds	binds	IFIT3 K249E (RNA-binding mutant) (protein, UniProt O14879 1-490) MSEVTKNSLEKILPQLKCHFTWNLFKEDSVSRDLEDRVCNQIEFLNTEFKATMYNLLAYIKHLDGNNEAALECLRQAEELIQQEHADQAEIRSLVTWGNYAWVYYHLGRLSDAQIYVDKVKQTCKKFSNPYSIEYSELDCEEGWTQLKCGRNERAKVCFEKALEEKPNNPEFSSGLAIAMYHLDNHPEKQFSTDVLKQAIELSPDNQYVKVLLGLKLQKMNKEAEGEQFVEEALEKSPCQTDVLRSAAEFYRRKGDLDKAIELFQRVLESTPNNGYLYHQIGCCYKAKVRQMQNTGESEASGNKEMIEALKQYAMDYSNKALEKGLNPLNAYSDLAEFLETECYQTPFNKEVPDAEKQQSHQRYCNLQKYNGKSEDTAVQHGLEGLSISKKSTDKEEIKDQPQNVSENLLPQNAPNYWYLQGLIHKQNGDLLQAAKCYEKELGRLLRDAPSGIGSIFLSASELEDGSEEMGQGAVSSSPRELLSNSEQLN
